Record: PubChem BioAssay AID743121 (NCATS, 2013)
The deposit covers about 26,000 reagents; below is a part drawn at random. 167 of all reagents (0.63%) count as active. 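Calls are per gene from RSA p-values that are not deposited; an individual active-marked siRNA can sensitise only weakly.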 Reagents against one gene are numbered here. Not all columns of the deposit are shown. Reagent sequences are not shown.

Purpose: 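Partners whose loss is lethal together with topoisomerase I blockade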 (primary screen)
Cells: MDA-MB-231 cells, a human breast cancer line
Knock-down reagent: single siRNA against human genes, 20 nM siRNA (0.8 pmol per well)
Time to read-out: 120 h (drug added 48 h after transfection, read 72 h later)
Challenge: camptothecin 20 nM (about EC30) for 72 h; vehicle 0.1% DMSO in parallel plates
Detection: 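CellTiter-Glo ATP signal, scaled to control siRNA as percent viability; sensitisation given as log2 of untreated divided by camptothecin-treated viability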
Direction: log2 vehicle/camptothecin viability: higher = stronger sensitisation to camptothecin
Hit rule: 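Active genes have an RSA gene-level p-value below 0.001, computed from the ratios of their separate siRNAs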

log2 vehicle/camptothecin viability, by target and reagent
RAF1: #1 -0.228 inactive; #2 -0.0461 inactive; #3 0.273 inactive; #4 0.131 inactive
ANP32A: #1 -0.221 inactive; #2 -0.00178 inactive; #3 -0.573 inactive; #4 -0.113 inactive
ITK: #1 -0.598 inactive; #2 -0.627 inactive; #3 0.069 inactive; #4 -0.0967 inactive
EAF1: #1 -0.064 inactive; #2 -0.114 inactive; #3 -0.049 inactive; #4 0.248 inactive
VRK2: #1 -0.269 inactive; #2 -0.504 inactive; #3 0.372 inactive; #4 -0.0867 inactive
NONO: #1 0.175 inactive; #2 0.468 inactive; #3 -0.422 inactive
OR4D2: #1 0.266 inactive; #2 -0.411 inactive; #3 -0.734 inactive; #4 -0.216 inactive
H2AZ2: #1 -0.276 inactive; #2 -0.229 inactive; #3 -0.0106 inactive; #4 -0.284 inactive; #5 0.398 inactive; #6 -0.473 inactive; #7 -0.337 inactive; #8 -0.185 inactive
TAS2R9: #1 -0.226 inactive; #2 -0.258 inactive; #3 -0.174 inactive; #4 -0.142 inactive
ADGRG1: #1 -0.355 inactive; #2 -0.533 inactive; #3 -0.468 inactive; #4 -0.305 inactive
TMUB1: #1 -0.392 inactive; #2 0.0219 inactive; #3 0.647 inactive; #4 0.143 inactive
TFF2: #1 0.0221 inactive; #2 -0.162 inactive; #3 -0.11 inactive; #4 -0.239 inactive
STK32A: #1 -0.497 inactive; #2 -0.263 inactive; #3 0.131 inactive; #4 -0.437 inactive
RGPD5: #1 -0.243 inactive; #2 -0.495 inactive; #3 -0.124 inactive; #4 -0.619 inactive
GNG12: #1 -0.31 inactive; #2 -0.3 inactive; #3 0.805 inactive
RXRG: #1 0.385 inactive; #2 -0.286 inactive; #3 -0.0427 inactive; #4 -0.191 inactive
PRKRA: #1 -0.476 inactive; #2 -0.348 inactive; #3 0.162 inactive; #4 0.379 inactive

Part of the list above in another layout.
VRK2 #3
- log2 vehicle/camptothecin viability: 0.372
- Call: inactive

VRK2 #4
- log2 vehicle/camptothecin viability: -0.0867
- Call: inactive

NONO #1
- log2 vehicle/camptothecin viability: 0.175
- Call: inactive

NONO #2
- log2 vehicle/camptothecin viability: 0.468
- Call: inactive

NONO #3
- log2 vehicle/camptothecin viability: -0.422
- Call: inactive

OR4D2 #1
- log2 vehicle/camptothecin viability: 0.266
- Call: inactive

OR4D2 #2
- log2 vehicle/camptothecin viability: -0.411
- Call: inactive

OR4D2 #3
- log2 vehicle/camptothecin viability: -0.734
- Call: inactive

OR4D2 #4
- log2 vehicle/camptothecin viability: -0.216
- Call: inactive
